B1: GMBC621 (scFv)
scFv: EVQLVQSGGGVVQPGRSLRLSCAASGFTFSSYGMHWVRQAPGKGLEWVAVISYDGSNKYYADSVKGRFTISRDNSKNTLYLQMDSLRAEDTAVYFCAKRGLWTPIDYWGKGTLVTVSSGGGGSGGGGSGGGGSSELTQDPAVSVALGQTVRITCQGDSLRSYYASWYQQKPGQAPVLVIYGKNNRPSGIPDRFSGSNSGNTASLTITGAQAEDEADYYCNSRDSSGNHVVFGGGTKLTVLG
B2: GMBC617 (scFv)
scFv: EVQLVETGGGLVQPGGSLRLSCAASGFTVSSNYMSWVRQAPGKGLEWVSVIYSGGSTYYADSVKGRFTISRHNSKNTLYLQMNSLRAEDTAVYYCARGLWFGELLYWGQGTLVTVSSGGGGSGGGGSGGGGSQSALTQPASVSGSRGQSITISCTGTTGDVGGYDYVSWYQQHPGKAPKLLIYGNSNRPSGVPDRFSASKSGNTASLTISGLQAEDEADYFCSTYAPPGIIMFGGGTKLTVLG
B3: GMBC619 (scFv)
scFv: EVQLVESGGGVVQPGRSLRLSCAASGFTFRSYGMHWVRQAPGKGLEWVAVITYDGSNKYYADSVKGRFTISRDNSKNTLYLQMNSLRADDTAVYYCARDGGGWYHPRLDYWGQGTMVTVSSGGGGSGGGGSGGGGSSELTQDPAVSVALGQTVRITCQGDSLRSYYASWYQQKPGQAPVLVIYGKNNRPSGIPDRFSGSSSGNTASLTITGAQAEDEADYYCNSRDSSGNHVVFGGGTKLTVLG
B4: GMBC612 (scFv)
scFv: EVQLVESGGGVVQPGGSLRLSCAASGFSFSSYGMQWVRQAPGKGLEWVAFIRYDGSIKYYADSVKGRFTVSRDNSKNTLYLQMNSLRAEDTAVYYCARGYRIVDYWGQGTLVTVSSGGGGSGGGGSGGGGSDIQMTQSPSTLSPSIGDRVTITCRASEGIYHWLAWYQQKPGKAPKLLIYKASSLASGAPSRFSGSGSGTDFTLTISSLQPDDFATYYCQQYSNYPLTFGGGTKLEIKR
B5: GMBC606 (scFv)
scFv: EVQLVQSGGGVVQPGGSLRLSCAASGFTFSSYGMHWVRQAPGKGLEWVAFIRYDGSNKYYADSVKGRFTISRDNSKNTLYLQMNSLRAEDTAVYYCAKSSSFANAFDIWGQGTTVTVSSGGGGSGGGGSGGGGSSELTQDPAVSVALGQTVRITCQGDSLRSYYASWYQQKPGQAPVLVIYGKNNRPSGIPDRFSGSSSGNTASLTITGAQAEDEADYYCNSRDSSGNHVVFGGGTKLTVLG
B6: GMBC725 (scFv)
scFv: B5 scFv with S7T, R52L, F102S, N104S, G110R, G112R
B7: GMBC618 (scFv)
scFv: EVQLVQSGGGLVKPGGSLRLSCAASGFKFDDAWMNWVRQAPGKGLEWVGRIKSKRSGGTIDYAAPVKDRFTISRDDSKNTLYLQMNSLRTEDTALYYCTWDWDFYYGMNVWGRGTLVTVSSGGGGSGGGGSGGGGSQSVLTQPPSASGTPGQRVTISCSGSSSNIGSNTVNWYQRLPGAAPQLLIYNNDQRPSGIPDRFSGSKSGTSGSLVISGLQSEDEADYYCASWDDSLNGRVFGGGTKLTVLG
B8: GMBC609 (scFv)
scFv: QVQLVESGGGLVKPGESLRLSCEASGFEFNYAWMSWVRQAPGKGLEWVGRSRSEASGGTTDYAAPLQDRFTISRDDSKNTLYLQVNSLKIEDTGVYFCKWEKSEYYGMDVWGRGTPVTVSSGGGGSGGGGSGGGGSQSVLTQPPSVSAAPGQKVTISCSGSTSNIGNNYVSWYQQHPGKAPKLMIYDVSKRPSGVPDRFSGSKSGNSASLDISGLQSEDEADYYCAAWDDSLSEFLFGTGTKLTVLG
B9: GMBC666 (scFv)
scFv: B8 scFv with Q1E, V12A, R113K, P116M
B10: GMBC610 (scFv)
scFv: QVTLKESGAEVKKPGASVKVSCKTSGFTFGAYYIHWVRQVPGQGLEWMGWIDPNNGGTNYAQKFQGRVTMTRDMSTTTTYMEVSGLHSDDTAVYYCARARVATILEYWGRGTLVTVSSGGGGSGGGGSGGGGSPELTQDPAVSVALGQTVRITCQGDSLRSYYASWYQQKPGQAPVLVIYGKNNRPSGIPDRFSGSSSGNTASLTITGAQAEDEADYYCNSRDSSGNHVVFGGGTKLTVLG
B11: GMBC608 (scFv)
scFv: EVQLVQSGGGLVQPGRSLRLSCAASGFTFSDSYMTWIRQAPGEGLEFVSYISSGSSTTYYTDSVKGRFTISRDNSKNTLYLQMNSLRPEDTAVYYCARRSISSDYYSYYLDVWGKGTLVTVSSGGGGSGGGGSGGGGSSELTQDPAVSVALGQTVRITCQGDSLRSYYASWYQQKPGQAPVLVIYGKNNRPSGIPDRFSGSSSGNTASLTITGAQAEDEADYYCNSRDSSGNHVVFGGGTKLTVLG
B12: GMBC664 (scFv)
scFv: EVQLVETGGALVKPGGSLRLSCAASGFTFSDAWMNWVRQAPGKGLEWVGRIKSKGSGGTIDYAAPVKDRFTISRDDSKNTLYLQMNSLKTEDTALYYCTWDWDFYYGMNVWSRGTMVTVSSGGGGSGGGGSGGGGSQSVLTQPASVSGSPGQSITISCTGTSSDVGGYNYVSWYQQHPGKAPKLMIYEGSKRPSGVSNRFSGSKSGNTASLTISGLQAEDEADYYCSSYTTRSTRVFGGGTKLTVLG
B13: GMBC727 (scFv)
scFv: EVQLVESGGDTVKPGGSLRLSCAGSGFTFSDAWMNWVRQAPGKGLEWVGRMKSKGSGGTRDYAAPVNGRFTISRDDSKNTLYLQMNSLNTEDTGVYYCTWDWDFYYGMNVWGRGTLVTVSSGGGGSGGGGSGGGGSQSVLTQPASVSGSPGQSITISCTGTSSDVGGYNYVSWYQQHPGKAPKLMIYEGSKRPSGVSNRFSGSKSGNTASLTISGLQAEDEADYYCSSYTTRSTRVFGGGTKLTVLG
B14: GMBC690 (scFv)
scFv: B12 scFv with E6Q, T7S, A10G, L11V, K13Q, G16R, S112G, M116L, N169I, K180R
B15: GMBC684 (scFv)
scFv: B12 scFv with E1Q, E6Q, T7S, A10G, T28K, S112G, R113Q, M116P, V139A
B16: GMBC693 (scFv)
scFv: B12 scFv with E1Q, T7S, A10G, S112G, R113K, M116L, N207D
B17: GMBC672 (scFv)
scFv: B12 scFv with E1Q, E6Q, T7S, A10G, S112G, R113Q, M116L, G239E
B18: GMBC686 (scFv)
scFv: B12 scFv with E6Q, T7S, A10G, S112G, R113Q, M116T
B19: GMBC679 (scFv)
scFv: QVQLVESGGGLVKPGGSLRLSCAASGFTFSDAWMNWVRQAPGKGLEWVGRIKSKGSGGTTDYAAPVKDRFTISRDDSENTLYLQMNSLKTEDTAVYYCTWDHSYYYDMAVWGRGTLVTVSSGGGGSGGGGSGGGGSQSVLTQPASVSGSPGQSITISCTGTSSDVGGYNYVSWYQQHPGKAPKLVIYEGSKRPSGVSNRFSGSKSGNTASLTISGLQAEDEADYYCSSYTTRSTRVFGGGTKLTVLG
B20: GMBC667 (scFv)
scFv: QVQLQESGGGLVKPGGSLRLSCAGSGFPFSDAWMNWVRQAPGKGLEWVGRIKSKGSGGTIDYAAPVKDRFRISRDDSKNTLYLQMNSLNIEDTALYYCTWDWDFYYGMNVWGQGTTVTVSSGGGGSGGGGSGGGGSQSVLTQPASVSGSPGQSITISCTGTSSDVGGYNYVSWYQQHPGKAPKLMIYEGSKRPSGVSNRFSGSKSGNTASLTISGLQAEDEADYYCSSYTTRSTRVFGGGTKLTVLG
B21: GMBC670 (scFv)
scFv: B12 scFv with A10G, A23V, T71I, M85V, S112G, R113Q, M116L
B22: GMBC676 (scFv)
scFv: B12 scFv with E6Q, T7S, A10G, K13Q, D31H, G55A, Q84H, S112G, S153P

Chains of the proteins cited; added tags and fusions are not shown. Lines headed by an entry give the natural chain unless they say otherwise; changes in a name come on top.
UniProt Q9HD89: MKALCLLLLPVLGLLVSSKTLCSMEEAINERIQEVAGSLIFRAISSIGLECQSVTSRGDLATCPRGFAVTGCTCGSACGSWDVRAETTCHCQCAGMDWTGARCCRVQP

Numbering of substitutions follows the chain as printed. These are yes or no findings as the source states them, for the method shown. Some results given as binding are weak or reduced against the parent protein; the word gives no strength.

For one experiment, the target named is Flag-tagged recombinant human GMAD (human) (UniProt Q9HD89). The experiment in a line: phage display selection of scFvs.
On to B1, for which the binding result was “binds”.
On the same count and under the same terms, to B2 belongs “binds”; to B3, “binds”; to B4, “binds”.
Turning to B5, the binding result was “binds”.
The same measure, in the same setting: to B6 belongs “binds”.
With B7, the binding result is “binds”.
B8: the binding entry is listed as “binds”.
The same measure, in the same setting: to B9 belongs “binds”; to B10, “binds”; to B11, “binds”.
Take B12: the binding result is “binds”.
Same read-out and setting: to B13 belongs “binds”.
For B14, the binding entry is “binds”.
On to B15, for which the binding entry was “binds”.
On the same count and under the same terms, to B16 belongs “binds”; to B17, “binds”.
For B18, the binding result was “binds”.
On the same count and under the same terms, to B19 belongs “binds”; to B20, “binds”; to B21, “binds”.
On the same count and under the same terms, to B22 belongs “binds”.

The next experiment has the same target. Description: phage ELISA.
On to B1, for which the binding result is on record as “binds”.
On the same count and under the same terms, to B2 belongs “binds”.
B3: the binding result was “binds”.
For B4, the binding result was “binds”.
The same measure, in the same setting: to B5 belongs “binds”; to B6, “binds”; to B7, “binds”.
On the same count and under the same terms, to B8 belongs “binds”; to B9, “binds”; to B10, “binds”.
Still for that read-out and setting: to B11 belongs “binds”; to B12, “binds”; to B13, “binds”.
Consider B14, for which the binding result was “binds”.
On the same count and under the same terms, to B15 belongs “binds”.
B16: the binding result is “binds”.
The same measure, in the same setting: to B17 belongs “binds”.
On the same count and under the same terms, to B18 belongs “binds”; to B19, “binds”.
The same measure, in the same setting: to B20 belongs “binds”.
For B21, the binding entry was “binds”.
Same read-out and setting: to B22 belongs “binds”.
